Experimental data as given in article PMC6245796.
No constants are given. Whether binding was seen depends on the method and setting. In cells and extracts the contact can be indirect. Some binding calls cover weakened binding; strength is not graded here. For part of these data: Where a sequence is shown, tags or fusion partners need not be part of it.

The chains behind the UniProt entries cited, without tags or fusion partners.
UniProt Q9BUL8: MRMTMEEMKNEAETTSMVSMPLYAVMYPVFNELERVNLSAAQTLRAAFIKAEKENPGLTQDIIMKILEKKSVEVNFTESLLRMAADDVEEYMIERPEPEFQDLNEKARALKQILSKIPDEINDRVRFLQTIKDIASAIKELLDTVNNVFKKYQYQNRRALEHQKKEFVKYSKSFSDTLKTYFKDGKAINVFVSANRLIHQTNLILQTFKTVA
UniProt Q9UBN7: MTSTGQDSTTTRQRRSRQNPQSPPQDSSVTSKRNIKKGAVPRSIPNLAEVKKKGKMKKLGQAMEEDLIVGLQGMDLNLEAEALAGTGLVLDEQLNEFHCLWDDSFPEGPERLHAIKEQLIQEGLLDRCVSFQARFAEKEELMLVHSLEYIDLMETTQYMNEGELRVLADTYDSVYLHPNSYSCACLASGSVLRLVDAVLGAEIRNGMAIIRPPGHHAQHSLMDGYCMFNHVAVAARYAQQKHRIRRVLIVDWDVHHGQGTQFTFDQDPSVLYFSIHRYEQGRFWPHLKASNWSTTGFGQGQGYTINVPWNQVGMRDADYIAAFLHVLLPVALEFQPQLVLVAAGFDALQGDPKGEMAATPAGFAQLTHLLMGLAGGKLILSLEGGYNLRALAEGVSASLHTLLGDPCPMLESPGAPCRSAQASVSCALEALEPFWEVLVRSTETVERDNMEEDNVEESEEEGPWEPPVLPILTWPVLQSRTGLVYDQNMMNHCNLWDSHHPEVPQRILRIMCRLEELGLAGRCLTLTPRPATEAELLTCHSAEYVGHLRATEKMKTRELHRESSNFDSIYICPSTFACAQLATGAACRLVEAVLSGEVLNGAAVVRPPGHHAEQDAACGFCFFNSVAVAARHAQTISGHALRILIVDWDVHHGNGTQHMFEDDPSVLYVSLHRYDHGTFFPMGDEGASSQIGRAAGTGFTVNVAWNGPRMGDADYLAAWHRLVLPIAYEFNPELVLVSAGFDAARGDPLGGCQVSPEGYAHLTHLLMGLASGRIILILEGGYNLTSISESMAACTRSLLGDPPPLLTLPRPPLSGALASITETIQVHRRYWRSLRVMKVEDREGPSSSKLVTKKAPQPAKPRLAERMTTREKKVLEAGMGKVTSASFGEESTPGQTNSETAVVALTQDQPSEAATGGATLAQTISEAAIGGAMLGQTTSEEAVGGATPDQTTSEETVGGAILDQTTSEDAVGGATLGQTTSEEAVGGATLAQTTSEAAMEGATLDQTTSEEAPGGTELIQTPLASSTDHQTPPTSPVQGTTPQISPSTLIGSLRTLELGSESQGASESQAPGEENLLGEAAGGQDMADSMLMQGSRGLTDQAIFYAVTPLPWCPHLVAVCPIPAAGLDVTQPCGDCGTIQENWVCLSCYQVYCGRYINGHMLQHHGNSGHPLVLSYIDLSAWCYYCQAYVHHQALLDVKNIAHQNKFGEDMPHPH
UniProt Q96CV9: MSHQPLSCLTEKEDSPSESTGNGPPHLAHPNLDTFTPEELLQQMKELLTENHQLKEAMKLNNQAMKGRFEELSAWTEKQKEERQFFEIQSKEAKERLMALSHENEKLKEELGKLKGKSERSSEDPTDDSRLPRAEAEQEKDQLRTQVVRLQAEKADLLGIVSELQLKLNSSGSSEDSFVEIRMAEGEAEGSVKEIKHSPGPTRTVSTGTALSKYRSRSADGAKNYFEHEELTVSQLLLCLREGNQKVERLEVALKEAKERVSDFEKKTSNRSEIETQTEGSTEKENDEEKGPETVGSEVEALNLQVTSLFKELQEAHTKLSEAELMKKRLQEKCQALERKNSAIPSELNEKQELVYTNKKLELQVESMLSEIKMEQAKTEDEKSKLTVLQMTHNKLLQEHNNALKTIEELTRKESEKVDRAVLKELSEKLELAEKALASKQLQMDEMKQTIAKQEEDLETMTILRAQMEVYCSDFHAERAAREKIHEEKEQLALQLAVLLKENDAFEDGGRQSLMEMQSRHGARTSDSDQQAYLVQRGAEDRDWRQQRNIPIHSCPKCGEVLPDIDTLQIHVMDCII

Experiments:
FLAG-PDCD10 [1] = target: FLAG-PDCD10 (UniProt Q9BUL8); test: co-IP; extracts of HEK293T cells co-transfected with one FLAG-tagged and one HA-tagged protein, 24 hours after transfection; low salt lysis buffer or RIPA buffer, 4 hours at 4°C, anti-FLAG or anti-HA agarose
FLAG-PDCD10 [2] = target: FLAG-PDCD10 (UniProt Q9BUL8); test: co-IP; extracts of HEK293T cells transfected with HA-p62 and FLAG-PDCD10 along with empty vector or Myc-TRIM59
[3] = target: T1, TRIM59, endogenous in MCF7 cells (human (endogenous in MCF7)) (UniProt Q8IWR1); test: co-IP; endogenous proteins, extracts of MCF7 cells; IP with anti-TRIM59 antibody, blot with anti-PDCD10 antibody; IgG as negative control
T1 sequence: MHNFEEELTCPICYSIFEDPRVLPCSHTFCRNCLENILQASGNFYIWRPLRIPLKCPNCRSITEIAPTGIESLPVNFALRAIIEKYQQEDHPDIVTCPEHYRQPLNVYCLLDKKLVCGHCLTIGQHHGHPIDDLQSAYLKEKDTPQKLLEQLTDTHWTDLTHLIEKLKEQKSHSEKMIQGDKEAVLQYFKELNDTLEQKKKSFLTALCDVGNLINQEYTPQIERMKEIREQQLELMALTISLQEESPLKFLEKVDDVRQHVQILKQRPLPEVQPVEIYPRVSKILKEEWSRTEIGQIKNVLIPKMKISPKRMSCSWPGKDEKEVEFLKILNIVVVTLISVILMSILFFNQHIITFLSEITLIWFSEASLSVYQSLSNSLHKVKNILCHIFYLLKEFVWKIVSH

[4] = target: PDCD10, endogenous in MCF7 and MDA-MB-231 cells (human (endogenous in MCF7 and MDA-MB-231)) (UniProt Q9BUL8); test: co-IP; endogenous proteins, extracts of WT or TRIM59 OE MDA-MB-231 cells and WT or TRIM59 KO MCF7 cells, blot for RNFT1, IgG controls; cells treated with BafA1 to maintain PDCD10 levels
FLAG-PDCD10 [5] = target: FLAG-PDCD10 (UniProt Q9BUL8); test: co-IP; extracts of HEK293T cells co-transfected with one FLAG-tagged and one HA-tagged protein, 24 hours after transfection; low salt lysis buffer or RIPA buffer, 4 hours at 4°C, anti-FLAG or anti-HA agarose; remark: listed apart in the source
FLAG-p62 = FLAG-p62 (UniProt Q13501); test: as above

With HA-HDAC6 (from UniProt Q9UBN7 1-1215) the binding (FLAG-PDCD10 [1]) was “no binding”.

In the case of HA-OPTN (from UniProt Q96CV9 1-577), the binding (FLAG-PDCD10 [1]) is reported as “no binding”.

In the case of HA-p62 (from UniProt Q13501 1-440), the binding (FLAG-PDCD10 [2]) is reported as “binds” and the binding (FLAG-PDCD10 [1]) is reported as “binds”.

With “PDCD10, endogenous in MCF7 and MDA-MB-231 cells (from UniProt Q9BUL8 1-212)” the binding [3] was “binds”.

B1: RNFT1, endogenous in MCF7 and MDA-MB-231 cells (protein, UniProt Q5M7Z0 1-435)
chain: MPLFLLSLPTPPSASGHERRQRPEAKTSGSEKKYLRAMQANRSQLHSPPGTGSSEDASTPQCVHTRLTGEGSCPHSGDVHIQINSIPKECAENASSRNIRSGVHSCAHGCVHSRLRGHSHSEARLTDDTAAESGDHGSSSFSEFRYLFKWLQKSLPYILILSVKLVMQHITGISLGIGLLTTFMYANKSIVNQVFLRERSSKIQCAWLLVFLAGSSVLLYYTFHSQSLYYSLIFLNPTLDHLSFWEVFWIVGITDFILKFFFMGLKCLILLVPSFIMPFKSKGYWYMLLEELCQYYRTFVPIPVWFRYLISYGEFGNVTRWSLGILLALLYLILKLLEFFGHLRTFRQVLRIFFTQPSYGVAASKRQCSDVDDICSICQAEFQKPILLICQHIFCEECMTLWFNREKTCPLCRTVISDHINKWKDGATSSHLQIY
With B1 the binding [4] was “binds”.

B2: HA-TRIM59 full-length WT (FL) (protein, UniProt Q8IWR1 1-403)
chain: MHNFEEELTCPICYSIFEDPRVLPCSHTFCRNCLENILQASGNFYIWRPLRIPLKCPNCRSITEIAPTGIESLPVNFALRAIIEKYQQEDHPDIVTCPEHYRQPLNVYCLLDKKLVCGHCLTIGQHHGHPIDDLQSAYLKEKDTPQKLLEQLTDTHWTDLTHLIEKLKEQKSHSEKMIQGDKEAVLQYFKELNDTLEQKKKSFLTALCDVGNLINQEYTPQIERMKEIREQQLELMALTISLQEESPLKFLEKVDDVRQHVQILKQRPLPEVQPVEIYPRVSKILKEEWSRTEIGQIKNVLIPKMKISPKRMSCSWPGKDEKEVEFLKILNIVVVTLISVILMSILFFNQHIITFLSEITLIWFSEASLSVYQSLSNSLHKVKNILCHIFYLLKEFVWKIVSH
For B2, the binding (FLAG-PDCD10 [5]) was “binds” and the binding (FLAG-p62) was “no binding”.

B3: HA-NDP52 (protein, UniProt Q13137 1-446)
chain: MEETIKDPPTSAVLLDHCHFSQVIFNSVEKFYIPGGDVTCHYTFTQHFIPRRKDWIGIFRVGWKTTREYYTFMWVTLPIDLNNKSAKQQEVQFKAYYLPKDDEYYQFCYVDEDGVVRGASIPFQFRPENEEDILVVTTQGEVEEIEQHNKELCKENQELKDSCISLQKQNSDMQAELQKKQEELETLQSINKKLELKVKEQKDYWETELLQLKEQNQKMSSENEKMGIRVDQLQAQLSTQEKEMEKLVQGDQDKTEQLEQLKKENDHLFLSLTEQRKDQKKLEQTVEQMKQNETTAMKKQQELMDENFDLSKRLSENEIICNALQRQKERLEGENDLLKRENSRLLSYMGLDFNSLPYQVPTSDEGGARQNPGLAYGNPYSGIQESSSPSPLSIKKCPICKADDICDHTLEQQQMQPLCFNCPICDKIFPATEKQIFEDHVFCHSL
With B3 the binding (FLAG-PDCD10 [5]) was “no binding”.
